# Values quoted from earlier work, collected in patent publication US7390505B2, “Nanoparticulate topiramate formulations” (Elan Pharma International, Ltd., priority 2003, dated 2008).
# For at least one compound, name, drawing or mass did not settle the structure.
# Columns and labels:
# [1] = not given; remark: listed apart in the source
# [2] = system: kainate/AMPA subtype of excitatory amino acid (glutamate) receptor; details: cultured neurons
smiles,measurement,setting,value
"CC1(C)O[C@@H]2[C@@H](CO[C@@]3(COS(N)(=O)=O)OC(C)(C)O[C@@H]23)O1 [Topiramate, 2,3:4,5-Di-O-isopropylidene-β-D-fructopyranose sulfamate]",loss of body weight in obese people,"Bray et al., 6-month trial",≤ 10% of their body weight
same,people taking topiramate who lost weight,some studies,20-50%
same,amount and severity of drinking,[1]; in vivo,significantly reduced
same,likelihood of being continuously alcohol-free for at least one month,"[1]; three-month trial, vs placebo",6 times
same,reduction of plasma GGT levels,"[1]; vs placebo, during the trial",superior to placebo
same,ability of kainate to activate the kainate/AMPA receptor,[2],antagonizes
